The source of these data is article PMC6484772, “S100A3 a partner protein regulating the stability/activity of RARα and PML-RARα in cellular models of breast/lung cancer and acute myeloid leukemia” (Oncogene, 2018).

Protein sequences, listed by entry. Tags and fused reporters are not part of them.
UniProt P10276: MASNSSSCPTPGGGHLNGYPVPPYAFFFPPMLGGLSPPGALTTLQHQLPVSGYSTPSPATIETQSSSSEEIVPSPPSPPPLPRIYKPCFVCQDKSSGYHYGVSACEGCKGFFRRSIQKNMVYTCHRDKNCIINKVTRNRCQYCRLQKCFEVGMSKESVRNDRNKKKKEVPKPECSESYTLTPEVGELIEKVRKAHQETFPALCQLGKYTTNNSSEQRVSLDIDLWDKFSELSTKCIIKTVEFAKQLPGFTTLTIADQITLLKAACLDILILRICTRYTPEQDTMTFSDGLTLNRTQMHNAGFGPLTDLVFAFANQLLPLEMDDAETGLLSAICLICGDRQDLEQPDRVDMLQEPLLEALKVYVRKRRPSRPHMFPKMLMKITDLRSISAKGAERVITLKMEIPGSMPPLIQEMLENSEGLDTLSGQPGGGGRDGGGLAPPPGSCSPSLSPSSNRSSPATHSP
UniProt Q01469: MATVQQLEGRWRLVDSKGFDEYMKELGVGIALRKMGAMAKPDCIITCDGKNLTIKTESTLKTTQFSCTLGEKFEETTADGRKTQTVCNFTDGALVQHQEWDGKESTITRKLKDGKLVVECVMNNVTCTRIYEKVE
UniProt P04792: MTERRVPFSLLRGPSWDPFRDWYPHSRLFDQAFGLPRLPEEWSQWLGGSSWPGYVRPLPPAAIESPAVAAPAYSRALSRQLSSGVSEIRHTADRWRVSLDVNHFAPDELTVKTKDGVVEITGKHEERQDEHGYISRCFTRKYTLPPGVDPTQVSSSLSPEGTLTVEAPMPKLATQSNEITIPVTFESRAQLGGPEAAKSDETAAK
UniProt Q9P0M6: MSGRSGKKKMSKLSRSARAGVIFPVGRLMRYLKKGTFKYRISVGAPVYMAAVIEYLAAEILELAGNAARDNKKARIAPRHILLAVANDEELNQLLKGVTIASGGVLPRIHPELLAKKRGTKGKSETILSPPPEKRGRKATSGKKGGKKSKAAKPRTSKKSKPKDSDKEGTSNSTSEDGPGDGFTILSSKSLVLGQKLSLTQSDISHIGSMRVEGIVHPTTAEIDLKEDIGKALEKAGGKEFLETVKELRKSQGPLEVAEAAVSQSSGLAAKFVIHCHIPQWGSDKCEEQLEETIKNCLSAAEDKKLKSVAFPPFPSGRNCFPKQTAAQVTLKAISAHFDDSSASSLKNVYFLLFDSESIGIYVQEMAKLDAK

No constants are given. Whether binding was seen depends on the method and setting. In cells and extracts the contact can be indirect. These calls come from enrichment with a bait or labelling near it, and not all partners need be listed.

The target of this test is FLAG-tagged RARα (UniProt P10276). Kind of test: affinity purification with mass spectrometry; nuclear fractions (NABP and INP) of RA-453 and control FL-453 cells exposed to vehicle or ATRA, immunoprecipitated with anti-FLAG antibodies, quantitative proteomic analysis.

With FABP5 (from UniProt Q01469 1-135), the binding result is on record as “binds”. With HSPB1/HSP27 (from UniProt P04792 1-205), the binding entry is on record as “binds”. For the molecule “H2AW core-histone protein (from UniProt Q9P0M6 1-372)”, the binding result is listed as “binds”.

B1: S100A3 (over-expressed in COS-7) (natural protein, human, UniProt P33764 1-101, looked up)
chain: MARPLEQAVAAIVCTFQEYAGRCGDKYKLCQAELKELLQKELATWTPTEFRECDYNKFMSVLDTNKDCEVDFVEYVRSLACLCLYCHEYFKDCPSEPPCSQ
notes: protein S100-A3; source: COS-7, transiently transfected (pcDNA3 expression plasmid for the S100A3 cDNA), in cell extract; immunoprecipitated with anti-S100A3 for the far-western
As for B1, the binding entry is on record as “binds”.

B2: CEP83 (protein, UniProt Q9Y592 1-701)
chain: MVVSTFTDMDTFPNNFPPGGDSGLTGSQSEFQKMLIDERLRCEHHKANYQTLKAEHTRLQNEHVKLQNELKHLFNEKQTQQEKLQLLLEELRGELVEKTKDLEEMKLQILTPQKLELLRAQIQQELETPMRERFRNLDEEVEKYRAVYNKLRYEHTFLKSEFEHQKEEYARILDEGKIKYESEIARLEEDKEELRNQLLNVDLTKDSKRVEQLAREKVYLCQKLKGLEAEVAELKAEKENSEAQVENAQRIQVRQLAEMQATVRSLEAEKQSANLRAERLEKELQSSSEQNTFLINKLHKAEREINTLSSKVKELKHSNKLEITDIKLETARAKSELERERNKIQSELDGLQSDNEILKAAVEHHKVLLVEKDRELIRKVQAAKEEGYQKLVVLQDEKLELENRLADLEKMKVEHDVWRQSEKDQYEEKLRASQMAEEITRKELQSVRLKLQQQIVTIENAEKEKNENSDLKQQISSLQIQVTSLAQSENDLLNSNQMLKEMVERLKQECRNFRSQAEKAQLEAEKTLEEKQIQWLEEKHKLHERITDREEKYNQAKEKLQRAAIAQKKRKSLHENKLKRLQEKVEVLEAKKEELETENQVLNRQNVPFEDYTRLQKRLKDIQRRHNEFRSLILVPNMPPTASINPVSFQSSAMVPSMELPFPPHMQEEQHQRELSLLRKRLEELETTQRKQLEELGSSGE
For the molecule B2, the binding entry is “binds”.
